Source: publication PMC6884549, “Alkyladenine DNA glycosylase associates with transcription elongation to coordinate DNA repair with gene expression” (Nature Communications, 2019)

By UniProt entry, the sequences of proteins in these tests, tags left out. Where a name states a change or a piece, a line headed by the entry shows the natural chain unless it says otherwise.
UniProt P29372: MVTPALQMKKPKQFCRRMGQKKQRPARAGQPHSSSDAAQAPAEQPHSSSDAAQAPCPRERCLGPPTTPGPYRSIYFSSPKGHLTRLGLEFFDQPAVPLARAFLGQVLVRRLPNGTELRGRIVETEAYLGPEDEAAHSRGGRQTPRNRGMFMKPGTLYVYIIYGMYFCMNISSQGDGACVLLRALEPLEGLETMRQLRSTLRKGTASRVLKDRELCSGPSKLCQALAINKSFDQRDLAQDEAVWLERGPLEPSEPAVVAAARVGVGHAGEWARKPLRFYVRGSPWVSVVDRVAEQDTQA
UniProt P12004: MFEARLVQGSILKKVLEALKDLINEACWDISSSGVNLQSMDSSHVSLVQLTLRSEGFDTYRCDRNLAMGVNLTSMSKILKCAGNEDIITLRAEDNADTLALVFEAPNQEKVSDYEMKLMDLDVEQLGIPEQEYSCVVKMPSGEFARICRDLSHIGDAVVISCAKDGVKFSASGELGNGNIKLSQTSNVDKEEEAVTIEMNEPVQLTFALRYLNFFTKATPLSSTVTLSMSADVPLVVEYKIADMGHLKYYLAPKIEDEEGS

Target: FLAG-tagged AAG (human) (UniProt P29372)
Experiment: affinity purification with mass spectrometry; FLAG-AAG from transfected HEK293T (mock or 2 mM MMS for 1 h); 1 mg extract on FLAG M2 resin in buffer A1 (20 mM HEPES pH 7.9, 140 mM NaCl, 0.01% NP-40) 2 h at 4 °C, eluted with 3xFLAG peptide, LC/MS-MS; empty FLAG vector as control

PCNA, endogenous (from UniProt P12004 1-261)
binding: binds

These are yes or no findings as the source states them, for the method shown. Binding seen in cells or lysates may run through a third protein. Here binding means that the protein was enriched with, or labelled near, the bait; the list need not be complete.
